Here are results for 2 molecules from publication PMC6657668, “Porcine Beta-Defensin 2 Provides Protection Against Bacterial Infection by a Direct Bactericidal Activity and Alleviates Inflammation via Interference With the TLR4/NF-κB Pathway” (Frontiers in Immunology, 2019).

Sequences of proteins named here, by UniProt entry; tags and fusion partners are left off. Residues count along the entry.
UniProt P02769, residues 25-607: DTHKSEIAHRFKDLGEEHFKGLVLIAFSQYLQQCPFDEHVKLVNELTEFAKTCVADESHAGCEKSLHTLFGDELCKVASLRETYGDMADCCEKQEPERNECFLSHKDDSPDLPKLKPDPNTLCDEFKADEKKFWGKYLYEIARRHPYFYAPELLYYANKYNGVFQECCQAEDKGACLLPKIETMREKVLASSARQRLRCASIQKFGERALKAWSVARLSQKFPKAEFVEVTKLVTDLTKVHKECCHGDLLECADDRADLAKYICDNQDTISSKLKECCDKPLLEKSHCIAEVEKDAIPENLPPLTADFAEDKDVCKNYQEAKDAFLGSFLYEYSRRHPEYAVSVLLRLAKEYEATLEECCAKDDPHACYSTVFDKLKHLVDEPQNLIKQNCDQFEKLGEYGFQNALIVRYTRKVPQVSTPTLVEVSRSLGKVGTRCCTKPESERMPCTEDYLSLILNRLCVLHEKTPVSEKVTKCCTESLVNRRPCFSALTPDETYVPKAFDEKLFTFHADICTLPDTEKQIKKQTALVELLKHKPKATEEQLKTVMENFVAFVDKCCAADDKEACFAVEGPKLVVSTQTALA

Results are given in words; binding and its absence hold for the method and conditions named. For part of these data: Binding seen in cells or lysates may run through a third protein. Some results given as binding are weak or reduced against the parent protein; the word gives no strength.

Assay [1] addresses T1, Porcine beta-defensin 2 (PBD-2), synthetic mature peptide (pig).
T1 sequence (peptide): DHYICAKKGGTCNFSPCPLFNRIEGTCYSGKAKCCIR
In words: co-IP; RAW 264.7 cells treated with synthetic PBD-2 (1, 10, 30 and 50 μg/ml) for 16 h and lysed; lysate precipitated with PBD-2 antisera (control: mouse IgG) and protein A/G beads; TLR4 detected by Western blot; only the target purified.

For assay [2], the target named is Bovine serum albumin (BSA) (bovine) (UniProt P02769). In words: far-Western, overlay or dot blot; TLR4 and BSA run on SDS-PAGE and transferred to a PVDF membrane, blocked with BSA, incubated with 10 μg/ml PBD-2 in PBST at 37°C for 2 h; detected with anti-PBD-2 antisera; both purified.
In assay [3] the target is T2, TLR4, purified recombinant protein (Cloud-clone # RPA753Mu01) (UniProt Q9QUK6 26-638).
T2 construct: Toll-like receptor 4 (TLR4), bought recombinant protein; the vendor's data sheet is needed; also called purified TLR4; source: bought: Cloud-clone (# RPA753Mu01)
T2 sequence (looked up): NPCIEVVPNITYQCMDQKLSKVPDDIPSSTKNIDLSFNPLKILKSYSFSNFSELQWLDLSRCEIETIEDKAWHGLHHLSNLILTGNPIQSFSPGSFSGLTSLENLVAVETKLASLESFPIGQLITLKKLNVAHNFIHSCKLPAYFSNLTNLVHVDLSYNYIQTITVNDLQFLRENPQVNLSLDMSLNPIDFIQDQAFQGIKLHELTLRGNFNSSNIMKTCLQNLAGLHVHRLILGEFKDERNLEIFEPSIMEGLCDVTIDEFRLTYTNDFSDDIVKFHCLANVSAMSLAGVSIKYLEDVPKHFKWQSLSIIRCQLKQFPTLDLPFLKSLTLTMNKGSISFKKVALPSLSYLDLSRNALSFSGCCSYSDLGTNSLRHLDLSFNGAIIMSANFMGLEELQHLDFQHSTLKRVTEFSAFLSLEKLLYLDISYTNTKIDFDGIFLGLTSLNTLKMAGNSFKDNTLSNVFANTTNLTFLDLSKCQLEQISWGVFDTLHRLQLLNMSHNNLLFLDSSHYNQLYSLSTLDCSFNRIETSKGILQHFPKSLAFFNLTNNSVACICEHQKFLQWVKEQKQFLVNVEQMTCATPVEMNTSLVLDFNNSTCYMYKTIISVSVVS
Described as above.

Consider “TLR4, endogenous in RAW 264.7 cells (from UniProt Q9QUK6 26-835) (receptor)”, for which, in assay [1], the binding entry is reported as “binds”.

Consider DHYICAKKGGTCNFSPCPLFNRIEGTCYSGKAKCCIR [Porcine beta-defensin 2 (PBD-2), synthetic mature peptide], for which the binding result is “no binding (tested: 10 μg/ml PBD-2)” in assay [2] and “binds” in assay [3].
